According to paper PMC10781680:
Results are given in words; binding and its absence hold for the method and conditions named. In cells and extracts the contact can be indirect. Some entries that bind do so weakly or less than the wild type. For part of these data: Tags and fused reporters may be left off the sequences shown.

Protein sequences, listed by entry. Tags and fused reporters are not part of them.
UniProt Q8IYM9: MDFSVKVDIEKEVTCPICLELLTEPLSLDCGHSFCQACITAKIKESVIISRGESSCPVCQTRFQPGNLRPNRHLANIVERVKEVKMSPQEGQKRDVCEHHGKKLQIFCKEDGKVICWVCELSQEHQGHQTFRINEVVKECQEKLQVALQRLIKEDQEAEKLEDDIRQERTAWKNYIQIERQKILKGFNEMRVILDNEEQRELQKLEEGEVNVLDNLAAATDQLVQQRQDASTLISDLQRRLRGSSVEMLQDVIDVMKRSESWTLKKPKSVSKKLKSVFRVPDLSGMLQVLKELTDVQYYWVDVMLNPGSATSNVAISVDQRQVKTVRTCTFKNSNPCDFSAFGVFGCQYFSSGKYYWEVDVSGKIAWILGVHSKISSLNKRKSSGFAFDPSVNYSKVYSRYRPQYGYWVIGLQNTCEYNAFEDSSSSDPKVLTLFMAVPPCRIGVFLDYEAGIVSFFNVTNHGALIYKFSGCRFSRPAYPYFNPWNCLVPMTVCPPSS

T1: PHLPP2 (endogenous) (human (endogenous in HepG2)) (UniProt Q6ZVD8)
T1 sequence: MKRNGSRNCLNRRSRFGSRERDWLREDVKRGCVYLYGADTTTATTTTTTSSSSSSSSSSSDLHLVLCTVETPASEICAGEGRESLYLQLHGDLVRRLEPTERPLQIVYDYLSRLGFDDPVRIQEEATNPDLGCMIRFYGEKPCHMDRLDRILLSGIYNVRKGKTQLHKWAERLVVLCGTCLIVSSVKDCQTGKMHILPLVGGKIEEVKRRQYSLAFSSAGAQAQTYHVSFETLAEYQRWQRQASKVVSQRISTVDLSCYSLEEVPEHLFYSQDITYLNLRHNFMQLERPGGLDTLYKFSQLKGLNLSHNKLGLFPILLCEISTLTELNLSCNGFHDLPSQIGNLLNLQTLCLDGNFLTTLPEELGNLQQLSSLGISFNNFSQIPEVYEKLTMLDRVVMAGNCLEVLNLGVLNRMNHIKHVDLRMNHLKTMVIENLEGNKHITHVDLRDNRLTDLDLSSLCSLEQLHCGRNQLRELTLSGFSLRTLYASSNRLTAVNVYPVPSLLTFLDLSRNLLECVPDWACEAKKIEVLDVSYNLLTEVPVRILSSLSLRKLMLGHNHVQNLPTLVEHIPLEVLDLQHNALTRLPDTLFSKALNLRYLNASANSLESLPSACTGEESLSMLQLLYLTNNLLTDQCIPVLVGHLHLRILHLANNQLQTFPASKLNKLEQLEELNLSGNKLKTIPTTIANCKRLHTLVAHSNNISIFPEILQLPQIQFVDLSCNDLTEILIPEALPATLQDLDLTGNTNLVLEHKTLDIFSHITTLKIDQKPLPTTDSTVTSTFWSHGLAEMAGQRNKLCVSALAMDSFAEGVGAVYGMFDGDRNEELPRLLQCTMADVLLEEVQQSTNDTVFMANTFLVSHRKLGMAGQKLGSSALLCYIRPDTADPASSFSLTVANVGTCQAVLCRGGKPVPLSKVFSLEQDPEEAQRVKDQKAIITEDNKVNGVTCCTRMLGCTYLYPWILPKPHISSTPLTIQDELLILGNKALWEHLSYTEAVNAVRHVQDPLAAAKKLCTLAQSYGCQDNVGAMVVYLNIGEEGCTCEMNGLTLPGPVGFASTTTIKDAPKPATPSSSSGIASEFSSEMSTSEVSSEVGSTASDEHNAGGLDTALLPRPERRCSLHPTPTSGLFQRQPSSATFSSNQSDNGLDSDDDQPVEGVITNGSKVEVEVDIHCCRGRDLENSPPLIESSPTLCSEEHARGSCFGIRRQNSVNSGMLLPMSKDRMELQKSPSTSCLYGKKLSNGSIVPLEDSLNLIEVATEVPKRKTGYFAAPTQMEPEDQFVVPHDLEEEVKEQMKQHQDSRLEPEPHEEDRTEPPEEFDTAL

T2: Flag-tagged PHLPP2 Wt (p3xFlag-PHLPP2 Wt) (UniProt Q6ZVD8)
T2 sequence: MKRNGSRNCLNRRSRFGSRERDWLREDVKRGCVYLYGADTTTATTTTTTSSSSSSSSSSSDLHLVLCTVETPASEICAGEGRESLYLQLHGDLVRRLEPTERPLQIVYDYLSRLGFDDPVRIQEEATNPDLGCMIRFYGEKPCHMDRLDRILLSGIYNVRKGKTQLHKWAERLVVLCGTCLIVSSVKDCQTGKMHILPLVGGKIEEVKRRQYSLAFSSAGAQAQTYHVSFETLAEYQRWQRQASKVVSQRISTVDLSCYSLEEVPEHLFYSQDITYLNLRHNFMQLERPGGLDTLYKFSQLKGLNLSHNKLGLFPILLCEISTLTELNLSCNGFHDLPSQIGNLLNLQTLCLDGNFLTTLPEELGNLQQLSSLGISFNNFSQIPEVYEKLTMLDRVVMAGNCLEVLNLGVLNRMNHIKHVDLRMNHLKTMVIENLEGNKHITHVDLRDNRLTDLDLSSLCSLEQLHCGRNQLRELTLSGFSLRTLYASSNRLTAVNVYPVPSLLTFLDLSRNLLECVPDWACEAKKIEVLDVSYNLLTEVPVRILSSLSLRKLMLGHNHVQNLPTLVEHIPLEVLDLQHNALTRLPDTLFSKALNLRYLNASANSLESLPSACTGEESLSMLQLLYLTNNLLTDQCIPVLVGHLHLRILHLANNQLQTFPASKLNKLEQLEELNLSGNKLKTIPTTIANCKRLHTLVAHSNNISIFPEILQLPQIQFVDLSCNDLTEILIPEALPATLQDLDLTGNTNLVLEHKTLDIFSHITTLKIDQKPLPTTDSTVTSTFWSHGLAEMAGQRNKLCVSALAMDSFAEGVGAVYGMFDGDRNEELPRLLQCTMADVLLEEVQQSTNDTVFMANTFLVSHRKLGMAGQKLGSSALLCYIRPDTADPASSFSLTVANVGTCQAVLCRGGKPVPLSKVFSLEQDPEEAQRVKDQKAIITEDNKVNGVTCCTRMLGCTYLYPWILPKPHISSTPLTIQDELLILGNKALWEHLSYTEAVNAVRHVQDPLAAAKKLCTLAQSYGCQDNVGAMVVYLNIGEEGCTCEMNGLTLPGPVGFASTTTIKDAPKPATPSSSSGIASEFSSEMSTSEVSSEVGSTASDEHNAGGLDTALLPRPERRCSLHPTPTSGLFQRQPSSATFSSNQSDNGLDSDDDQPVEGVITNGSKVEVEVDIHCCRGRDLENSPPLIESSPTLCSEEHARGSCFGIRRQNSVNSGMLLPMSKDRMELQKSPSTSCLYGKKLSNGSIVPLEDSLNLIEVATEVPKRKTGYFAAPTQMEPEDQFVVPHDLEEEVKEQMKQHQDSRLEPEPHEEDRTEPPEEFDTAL

T3: IKKα (endogenous) (human (endogenous in HepG2)) (UniProt O15111)
T3 sequence: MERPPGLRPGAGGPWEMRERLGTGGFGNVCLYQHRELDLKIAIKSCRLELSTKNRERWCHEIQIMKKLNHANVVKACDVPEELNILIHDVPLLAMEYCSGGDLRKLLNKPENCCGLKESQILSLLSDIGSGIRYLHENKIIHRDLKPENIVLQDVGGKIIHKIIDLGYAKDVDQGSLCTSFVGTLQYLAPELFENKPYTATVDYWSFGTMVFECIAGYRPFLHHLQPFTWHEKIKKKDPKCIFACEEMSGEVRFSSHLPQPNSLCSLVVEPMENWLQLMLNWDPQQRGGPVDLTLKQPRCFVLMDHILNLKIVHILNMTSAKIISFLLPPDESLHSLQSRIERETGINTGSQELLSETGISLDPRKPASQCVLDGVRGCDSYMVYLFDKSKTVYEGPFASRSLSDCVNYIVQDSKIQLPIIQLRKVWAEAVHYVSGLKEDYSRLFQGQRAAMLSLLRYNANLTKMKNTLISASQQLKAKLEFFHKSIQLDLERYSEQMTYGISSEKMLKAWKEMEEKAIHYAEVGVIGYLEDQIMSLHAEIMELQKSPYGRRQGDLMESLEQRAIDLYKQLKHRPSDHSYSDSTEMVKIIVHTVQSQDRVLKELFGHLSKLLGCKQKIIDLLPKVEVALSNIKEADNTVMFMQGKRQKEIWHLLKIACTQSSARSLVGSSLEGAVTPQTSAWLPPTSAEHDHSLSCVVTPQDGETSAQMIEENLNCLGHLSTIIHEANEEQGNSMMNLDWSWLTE

T4: IKKβ (endogenous) (human (endogenous in HepG2)) (UniProt O14920)
T4 sequence: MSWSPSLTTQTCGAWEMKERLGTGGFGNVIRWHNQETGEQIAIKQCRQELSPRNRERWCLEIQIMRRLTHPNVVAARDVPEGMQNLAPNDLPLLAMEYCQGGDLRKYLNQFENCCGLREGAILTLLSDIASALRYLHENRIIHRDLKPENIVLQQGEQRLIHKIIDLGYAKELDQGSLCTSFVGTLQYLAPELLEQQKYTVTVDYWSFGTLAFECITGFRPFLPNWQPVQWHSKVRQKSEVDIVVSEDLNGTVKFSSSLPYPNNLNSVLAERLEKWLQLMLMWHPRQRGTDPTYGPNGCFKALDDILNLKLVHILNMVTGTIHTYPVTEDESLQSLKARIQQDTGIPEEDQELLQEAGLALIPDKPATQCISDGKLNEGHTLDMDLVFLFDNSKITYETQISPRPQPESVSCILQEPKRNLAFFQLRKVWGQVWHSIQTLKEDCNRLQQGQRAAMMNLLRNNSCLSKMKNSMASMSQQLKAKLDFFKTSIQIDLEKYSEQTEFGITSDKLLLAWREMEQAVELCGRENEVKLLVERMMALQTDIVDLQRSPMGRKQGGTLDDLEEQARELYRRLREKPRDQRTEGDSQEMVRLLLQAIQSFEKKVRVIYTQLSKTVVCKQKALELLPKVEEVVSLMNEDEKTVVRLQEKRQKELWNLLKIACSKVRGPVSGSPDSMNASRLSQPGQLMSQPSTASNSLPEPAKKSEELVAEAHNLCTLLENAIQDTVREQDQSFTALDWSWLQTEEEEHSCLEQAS


Assays:
[1] = molecular target: T1, PHLPP2 (endogenous) (human (endogenous in HepG2)); assay: proximity ligation; HepG2 cells on coverslips, transfected with TRIM22-Myc or treated with IR, 20 μM MG132 for 4 hrs, fixed and permeabilized; Duolink PLA kit with an antibody to each protein
[2] = molecular target: T1, PHLPP2 (endogenous) (human (endogenous in HepG2)); assay: condition: only after treatment with Lambda protein phosphatase (λ-PPase); co-IP; IP with anti-PHLPP2 in TRIM22-overexpressed HepG2 cells; after IP treated with λ-PPase; Western blot
[3] = molecular target: T2, Flag-tagged PHLPP2 Wt (p3xFlag-PHLPP2 Wt); assay: co-IP; Flag-tagged PHLPP2 Wt or ΔCTD co-transfected with TRIM22 Wt into HepG2 cells; IP with Flag antibody, Western blot
[4] = molecular target: T1, PHLPP2 (endogenous) (human (endogenous in HepG2)); assay: co-IP; HepG2 cells transfected with EV or TRIM22-Myc, 20 μM MG132 for 4 hrs; lysed in NET-2 buffer; IP with anti-Myc or anti-PHLPP2, Western blot; also done in IKKα- or IKKβ-depleted cells (siRNA): interaction reduced in IKKβ-depleted cells, not in IKKα-depleted cells
[5] = molecular target: T1, PHLPP2 (endogenous) (human (endogenous in HepG2)); assay: co-IP; HepG2 cells transfected with Myc-tagged TRIM22 Wt or Muts (ΔRING, ΔBBox, ΔCC, ΔSPRY); IP (antibody not told) and Western blot
[6] = molecular target: T3, IKKα (endogenous) (human (endogenous in HepG2)); assay: co-IP; IP with anti-IKKα or anti-IKKβ in TRIM22-overexpressed HepG2 cells; Western blot
[7] = molecular target: T4, IKKβ (endogenous) (human (endogenous in HepG2)); assay: as above
[8] = molecular target: TRIM22-Myc (full-length TRIM22, Myc-tagged) (UniProt Q8IYM9); assay: co-IP; HepG2 cells transfected with EV or TRIM22-Myc, 20 μM MG132 for 4 hrs; lysed in NET-2 buffer; IP with anti-Myc or anti-PHLPP2, Western blot; also done in IKKα- or IKKβ-depleted cells (siRNA): interaction reduced in IKKβ-depleted cells, not in IKKα-depleted cells

binding [1]	binding [2]	binding [3]	binding [4]	binding [5]	binding [6]	binding [7]	binding [8]	Molecule
binds								TRIM22 (in IR-induced senescent HepG2 cells) (from UniProt Q8IYM9 1-498)
binds	no binding	binds	binds	binds				TRIM22-Myc (full-length TRIM22, Myc-tagged) (from UniProt Q8IYM9 1-498)
					binds	binds	binds	PHLPP2 (endogenous) (protein, UniProt Q6ZVD8 1-1323) MKRNGSRNCLNRRSRFGSRERDWLREDVKRGCVYLYGADTTTATTTTTTSSSSSSSSSSSDLHLVLCTVETPASEICAGEGRESLYLQLHGDLVRRLEPTERPLQIVYDYLSRLGFDDPVRIQEEATNPDLGCMIRFYGEKPCHMDRLDRILLSGIYNVRKGKTQLHKWAERLVVLCGTCLIVSSVKDCQTGKMHILPLVGGKIEEVKRRQYSLAFSSAGAQAQTYHVSFETLAEYQRWQRQASKVVSQRISTVDLSCYSLEEVPEHLFYSQDITYLNLRHNFMQLERPGGLDTLYKFSQLKGLNLSHNKLGLFPILLCEISTLTELNLSCNGFHDLPSQIGNLLNLQTLCLDGNFLTTLPEELGNLQQLSSLGISFNNFSQIPEVYEKLTMLDRVVMAGNCLEVLNLGVLNRMNHIKHVDLRMNHLKTMVIENLEGNKHITHVDLRDNRLTDLDLSSLCSLEQLHCGRNQLRELTLSGFSLRTLYASSNRLTAVNVYPVPSLLTFLDLSRNLLECVPDWACEAKKIEVLDVSYNLLTEVPVRILSSLSLRKLMLGHNHVQNLPTLVEHIPLEVLDLQHNALTRLPDTLFSKALNLRYLNASANSLESLPSACTGEESLSMLQLLYLTNNLLTDQCIPVLVGHLHLRILHLANNQLQTFPASKLNKLEQLEELNLSGNKLKTIPTTIANCKRLHTLVAHSNNISIFPEILQLPQIQFVDLSCNDLTEILIPEALPATLQDLDLTGNTNLVLEHKTLDIFSHITTLKIDQKPLPTTDSTVTSTFWSHGLAEMAGQRNKLCVSALAMDSFAEGVGAVYGMFDGDRNEELPRLLQCTMADVLLEEVQQSTNDTVFMANTFLVSHRKLGMAGQKLGSSALLCYIRPDTADPASSFSLTVANVGTCQAVLCRGGKPVPLSKVFSLEQDPEEAQRVKDQKAIITEDNKVNGVTCCTRMLGCTYLYPWILPKPHISSTPLTIQDELLILGNKALWEHLSYTEAVNAVRHVQDPLAAAKKLCTLAQSYGCQDNVGAMVVYLNIGEEGCTCEMNGLTLPGPVGFASTTTIKDAPKPATPSSSSGIASEFSSEMSTSEVSSEVGSTASDEHNAGGLDTALLPRPERRCSLHPTPTSGLFQRQPSSATFSSNQSDNGLDSDDDQPVEGVITNGSKVEVEVDIHCCRGRDLENSPPLIESSPTLCSEEHARGSCFGIRRQNSVNSGMLLPMSKDRMELQKSPSTSCLYGKKLSNGSIVPLEDSLNLIEVATEVPKRKTGYFAAPTQMEPEDQFVVPHDLEEEVKEQMKQHQDSRLEPEPHEEDRTEPPEEFDTAL
